According to paper PMC6530351:
These are yes or no findings as the source states them, for the method shown. In cells and extracts the contact can be indirect. Some entries that bind do so weakly or less than the wild type.

By UniProt entry, the sequences of proteins in these tests, tags left out.
UniProt Q8C3P7: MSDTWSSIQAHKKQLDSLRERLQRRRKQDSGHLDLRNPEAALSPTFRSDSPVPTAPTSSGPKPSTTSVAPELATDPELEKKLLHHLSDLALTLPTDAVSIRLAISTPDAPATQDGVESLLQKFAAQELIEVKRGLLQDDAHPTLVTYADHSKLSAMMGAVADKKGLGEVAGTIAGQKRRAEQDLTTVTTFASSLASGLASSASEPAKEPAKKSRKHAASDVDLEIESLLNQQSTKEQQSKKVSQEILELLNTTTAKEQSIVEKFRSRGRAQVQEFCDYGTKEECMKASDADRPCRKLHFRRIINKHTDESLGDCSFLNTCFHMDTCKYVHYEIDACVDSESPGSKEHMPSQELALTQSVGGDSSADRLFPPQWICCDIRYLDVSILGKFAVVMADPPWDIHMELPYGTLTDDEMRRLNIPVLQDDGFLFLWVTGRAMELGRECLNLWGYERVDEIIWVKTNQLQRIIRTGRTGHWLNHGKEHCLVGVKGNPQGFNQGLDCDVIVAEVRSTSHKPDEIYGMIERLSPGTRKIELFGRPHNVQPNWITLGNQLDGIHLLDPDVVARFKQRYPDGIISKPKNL

Target: METTL3 (mouse (endogenous in mRTECs)) (UniProt Q8C3P7)
Assay: co-IP; Pierce co-immunoprecipitation kit; IP with anti-METTL3 antibody from mRTECs, cells crosslinked before the immunoprecipitation; immune complexes treated with RNase for 5 min at 37°C; IgG antibody as control; Western blot

binding: binds
B1: DGCR8 (protein, UniProt Q9EQM6 1-773)
chain: METYESPSPLPREPAGEAMMENRACPFQVLPHEQSPPPPLQTSSDAEVMDVGSGGDGQSEPPADDPFNFYGASLLSKGSFSKGRLLIDPNCSGHSPRTARHAPAVRKFSPDLKLLKDVKISVSFTESCRSKDRKVLYTGVERSTRPECGQLLSPVSGDVHACPFGGSVGNGVGLGGESADKKDEENELDQEKRVEYAVLDELEDFTDNLELDEEGTGGFTAKAIVQRDRVDEEALNFSYEDDFDNDVDALLEEGLCAPKKRRMEEKYGGDSDHPSDGETSVQPMMTKIKTVLKSRGRPPTEPLPDGWIMTFHNSGVPVYLHRESRVVTWSRPYFLGTGSIRKHDPPLSSIPCLHYKKMKDNEEREQNCDLAPSGEVSPVKPLGRSAELDFPLEEPDSMGGDSGSMDEKDPLGAEAAAGALGQVKAKVEVCKDESVDLEEFRNYLEKRFDFEQVTVKKFRTWAERRQFNREMKRKQAESERPILPANQKLITLSVQDAPTKKEFVINPNGKSEVCILHEYMQRVLKVRPVYNFFECENPSEPFGASVTIDGVTYGSGTASSKKLAKNKAARATLEILIPDFVKQTSEEKPKDSEELEYFNHISIEDSRVYELTSKAGLLSPYQILHECLKRNHGMGDTSIKFEVVPGKNQKSEYVMACGKHTVRGWCKNKRVGKQLASQKILQLLHPHVKNWGSLLRMYGRESSKMVKQETSDKSVIELQQYAKKNRPNLHILSKLQEEMKRLAAEREETRKKPKMSIVASAQPGGEPLCTVDV
